Test results taken from US20200224181.

Legend:
Experiment in all cases: activity assay
[1] = biological target: T1, DNA polymerase theta WT polymerase domain (Homo sapiens) (UniProt O75417); details: primer extension with dNTPs, template-free, 5 mM Mn2+, 42 C; polymers up to 150-200 nt; purified recombinant protein; label: 5'-32P or ATTO488; single-stranded DNA
T1 sequence: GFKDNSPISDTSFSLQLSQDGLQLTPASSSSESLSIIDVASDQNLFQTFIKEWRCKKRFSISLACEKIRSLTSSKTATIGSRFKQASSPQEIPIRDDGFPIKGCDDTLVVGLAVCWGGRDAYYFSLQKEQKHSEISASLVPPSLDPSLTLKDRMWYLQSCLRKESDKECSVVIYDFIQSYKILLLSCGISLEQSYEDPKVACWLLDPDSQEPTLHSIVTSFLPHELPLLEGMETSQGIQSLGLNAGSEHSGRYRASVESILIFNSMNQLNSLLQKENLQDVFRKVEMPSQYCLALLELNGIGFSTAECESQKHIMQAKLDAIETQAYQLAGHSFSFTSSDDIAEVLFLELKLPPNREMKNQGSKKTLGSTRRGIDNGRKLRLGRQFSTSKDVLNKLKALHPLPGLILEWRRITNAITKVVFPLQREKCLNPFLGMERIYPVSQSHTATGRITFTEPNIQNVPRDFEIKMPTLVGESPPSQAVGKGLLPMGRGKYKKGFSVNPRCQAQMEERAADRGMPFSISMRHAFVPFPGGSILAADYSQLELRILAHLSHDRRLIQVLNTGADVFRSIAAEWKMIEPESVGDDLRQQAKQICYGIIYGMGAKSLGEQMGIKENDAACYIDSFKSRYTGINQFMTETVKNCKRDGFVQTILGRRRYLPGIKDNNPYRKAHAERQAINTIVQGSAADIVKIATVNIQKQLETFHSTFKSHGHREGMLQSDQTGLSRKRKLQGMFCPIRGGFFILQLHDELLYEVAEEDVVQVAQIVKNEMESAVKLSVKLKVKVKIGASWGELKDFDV

[2] = biological target: T2, Pol theta CS13 E2335G (Homo sapiens) (UniProt O75417); details: primer extension with dNTPs, NTPs and modified NTPs, template-free, 5 mM Mn2+, 42 C; purified recombinant protein; protein details: pSUMO326-derived; label: 5'-32P or ATTO488; single-stranded DNA
T2 sequence: T1 sequence with E544G

[3] = biological target: T3, Pol theta DW9 L2334M,E2335G (Homo sapiens) (UniProt O75417); details: extension with modified nucleotides, template-free, Mn2+; results mainly in figure; purified recombinant protein; protein details: pSUMO326-derived; label: 5'-32P or ATTO488; single-stranded DNA
T3 sequence: T1 sequence with L543M, E544G

[4] = biological target: T4, Pol theta GC10 P2322V (Homo sapiens) (UniProt O75417); details: primer extension with dNTPs, template-free, 5 mM Mn2+, 42 C; purified recombinant protein; protein details: pSUMO326-derived; label: 5'-32P or ATTO488; single-stranded DNA
T4 sequence: T1 sequence with P531V

[5] = biological target: T5, Pol theta NM11 Y2387F (Homo sapiens) (UniProt O75417); details: primer extension with dNTPs, template-free, 5 mM Mn2+, 42 C; purified recombinant protein; protein details: pSUMO326-derived; label: 5'-32P or ATTO488; single-stranded DNA
T5 sequence: T1 sequence with Y596F

Measured: activity on this sequence

TACGCATTAGCATA [ssDNAp 14-mer primer]
active: [1] | [2] | [3] | [4] | [5]

Changes are numbered by the printed parent chain. Protein sequences can lack the tags named with them.
